Paper doi:10.1101/490318

B1: G3BP2 (protein, UniProt P97379 1-482)
chain: MVMEKPSPLLVGREFVRQYYTLLNKAPEYLHRFYGRNSSYVHGGVDASGKPQEAVYGQNDIHHKVLSLNFSECHTKIRHVDAHATLSDGVVVQVMGLLSNSGQPERKFMQTFVLAPEGSVPNKFYVHNDMFRYEDEVFGDSEPELDEESEDEVEEEQEDRQPSPEPVQENANSAYYDAHPVTNGIEEPLEESSHEPEPEPESETKTEELKPQVEEKHLEELEEKSATPPPAEPASLPQEPPKAFSWASVTSKNLPPSGTVSSSGIPPHVKAPVSQPRVDAKPEVQSQPPRVREQRPRERPGFPPRGPRPGRGDMEQNDSDNRRIIRYPDSHQLFVGNLPHDIDENELKEFFMSFGNVVELRINTKGVGGKLPNFGFVVFDDSEPVQRILIAKPIMFRGEVRLNVEEKKTRAARERETRGGGDDRRDIRRNDRGPGGPRGIVGGGMMRDRDGRGPPPRGGMTQKLGSGRGTGQMEGRFTGQRR
B2: eIF2Balpha (protein, UniProt Q99LC8 1-305)
chain: MEDGELIEYFKSQMKGDPKMASAVAAIQTLLEFLKRDKGETLQGLRANLTYAIKTLCGVDSSVAVSSGGELFLRFISLTSLEYSDYSKCKKIMIERGELFLRRISLSRNKIANLCHTFIKDGARILTHAYSRVVLRVLEEAVAAKKRFSVYITESQPDLSGKKMAKALSHLNVPVTVVLDAAVGYIMEKADLVIVGAEGVVENGGIINKIGTNQMAVCAKAQNKPFYVVAESFKFVRLFPLNQEDVPDKFKYKADTLKSVQTGQDLKEEHPWVDYTSPSLITLLFTDLGVLTPSAVSDELIKLYL
B3: eIF2Bepsilon (protein, UniProt Q8CHW4 1-717)
chain: MAATAAVPGAAAGRASKRGGGGSGGGGTQGAEEEPPPPLQAVLVADSFNRRFFPISKDQPRVLLPLANVALIDYTLEFLTATGVQETFVFCCWKAAQIKEHLQKSKWCHPTSPNVVRIITSELYRSLGDVLRDVDAKALVRSDFLLIYGDVISNINICRALEEHRLRRKLEKNVSVMTMVFKESSPSHPTRCHEDNVVMAVDSATNRVLHFQKTQGLRRFSFPLSLFQGSGDGVEIRYDLLDCHISICSPQVAQLFTDNFDYQTRDDFVRGILMNEEVLGNQIHLHVTTREYGARVSNLHMYSAVCADVIRRWVYPLTPEVNFTDSTTQSYTHSRHNIYRGPEVSLGHGSVLEENVLLGAGTVIGSNCSITNSVIGPNCHIGDNVVLDQAYLWQGVRVAAGAQIHQSLLCDRAEVKERVKLKPYCVLTSQVVVGPDITLPEGSVISLHPPDAEEDEDDGQFSDDSGADQEKEKVKLKGYNPAEVGLEGQGYLWKAEGVNSKEDEELRQSLWGLMIKTEEESETESEGSVDPEELDSRAGSPQLDDIRVFQNEVLGTLQRGREENISCENLVLEINSLKHAYNISLKEVMQVLTLVVLEFPLQQVDGLLDPNRYCALLLPLLKAWSPVLRNYIKRAADHLEALAAIEDFFLEHETLVTSMAKVLMAFYQLEILAEETILSWFSQRDTTDEGQQLRKNQQLQRFIQWLREAEEESSEDD
B4: PABP2 (protein, UniProt Q8CCS6 1-302)
chain: MAAAAAAAAAAGAAGGRGSGPGRRRHLVPGAGGEAGEGDPGGAGDYGNGLESEELEPGELLPEPEPEEEPPRPRAPPGAPGPGPGSGAPGSQEEEEEPGLVEADPGDGAIEDPELEAIKARVREMEEEAEKLKELQNEVEKQMNMSPPPGNAGPVIMSLEEKMEADARSIYVGNVDYGATAEELEAHFHGCGSVNRVTILCDKFSGHPKGFAYIEFSDKESVRTSLALDESLFRGRQIKVIPKRTNRPGISTTDRGFPRSRYRARTTNYNSSRSRFYSGFNSRPRGRIYRGRARATSWYSPY
B5: PUM3 (protein, UniProt Q8BKS9 1-647)
chain: MEVKGKKKFTGKSPQTSQGKNKFHKNSESSSSKTFPRKAVKEGGPKVTSKNFEKGATKPGKKGVKQFKNKPQGGKGPKDKFQKANKFSKKRKFQPDGESDESGAKKPKWDDFKKKKKELKQSRQLSDKTNYDIVVRAKHIWESLRRKDCDKEKRVKLMSDLQKLIQGKIKTIAFAHDSTRVIQCFIQYGNEEQRKQAFQELQGDLVELSKAKYSRNIVKKFLMYGSKPQVAEIIRSFKGHVRKMLRHSEASAIVEYAYNDKAILEQRNMLTEELYGNTFQLYKSADHPTLDKVLELQPAKLELIMDEMKQILTPMAQKEAVIKHSLVHKVFLDFFTYAPPKPRSELIEAIREAVVYLAHTHDGARVAMHCLWHGTPKDRKVIVKTMKTYVEKVANGQYSHLVLLAAFDCIDDTKLVKQIIISEIISSLPSIVNDKYGRKVLLYLMSPRDPAHTVPELIELLQKGDGNAHSKKDTAIRRRELLESISPALLSYLQGHTQEVVLDKSACVLVSDMLGSATGDVQPAMDAIASLAAAELHPGGKDGELHVAEHPAGHLVLKWLLEQDKKMKESGKEGCFAKTLVERVGMKNLKSWASINRGAIILSSLLQSCDQEVVNKVKGGLKPLIPTLEKNKSSSRGIQTLLEKLTA

molecular target: GFP-tagged G3BP1 (Ras-GTPase activating SH3 domain binding protein 1); experiment: affinity purification with mass spectrometry

Binder	binding
B1	binds
B2	binds
B3	binds
B4	binds
B5	binds

No constants are given. Whether binding was seen depends on the method and setting. Binding seen in cells or lysates may run through a third protein. A yes stands for co-enrichment or nearness to the bait. Other partners may have been found.
